Among the data in paper PMC8934857 are binding values, retold here.

The chains behind the UniProt entries cited, without tags or fusion partners. Residues count along the entry.
UniProt P19438, residues 30-455: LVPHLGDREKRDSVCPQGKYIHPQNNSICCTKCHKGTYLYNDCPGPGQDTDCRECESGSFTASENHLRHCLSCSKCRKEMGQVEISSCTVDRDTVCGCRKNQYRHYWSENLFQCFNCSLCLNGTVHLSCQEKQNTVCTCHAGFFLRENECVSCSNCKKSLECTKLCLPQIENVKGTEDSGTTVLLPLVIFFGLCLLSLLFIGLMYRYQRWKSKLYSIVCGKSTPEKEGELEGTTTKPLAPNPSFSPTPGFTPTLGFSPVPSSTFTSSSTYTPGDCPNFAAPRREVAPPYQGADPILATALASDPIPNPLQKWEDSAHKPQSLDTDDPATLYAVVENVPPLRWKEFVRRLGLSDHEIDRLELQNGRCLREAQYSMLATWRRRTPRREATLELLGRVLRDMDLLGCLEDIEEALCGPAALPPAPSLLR

Results are given in words; binding and its absence hold for the method and conditions named. Binding seen in cells or lysates may run through a third protein. Some binding calls cover weakened binding; strength is not graded here. Where a sequence is shown, tags or fusion partners need not be part of it.

The experiment addresses T1, Flag-labelled ANXA1 (UniProt P04083).
T1 sequence: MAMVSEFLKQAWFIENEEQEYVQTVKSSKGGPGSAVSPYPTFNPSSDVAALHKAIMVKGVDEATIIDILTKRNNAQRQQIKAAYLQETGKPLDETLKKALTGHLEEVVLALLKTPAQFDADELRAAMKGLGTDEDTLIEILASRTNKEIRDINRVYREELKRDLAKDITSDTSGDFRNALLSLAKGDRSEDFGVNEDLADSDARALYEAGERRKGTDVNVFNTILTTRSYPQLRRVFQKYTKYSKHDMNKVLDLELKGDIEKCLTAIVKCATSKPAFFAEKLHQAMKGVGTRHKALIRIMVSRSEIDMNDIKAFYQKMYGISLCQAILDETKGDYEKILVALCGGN
The experiment is described as follows: co-IP; exogenous co-IP from lysate of HEK293T cells transfected with ANXA1-Flag and/or TNFR1-HA plasmids; precipitated with anti-Flag or anti-HA antibody, Protein A/G PLUS-Agarose; western blot. Background: A western blot detects proteins with antibodies after separation by electrophoresis.

With “HA-labelled TNFR1 (from UniProt P19438 30-455) (receptor)”, the binding result was “binds”.
